According to paper PMC9532399, “The lysosomal transporter TAPL has a dual role as peptide translocator and phosphatidylserine floppase” (Nature Communications, 2022):
No constants are given. Whether binding was seen depends on the method and setting.

Target: T1, mouse TAPL truncation mutant devoid of the N-terminal 142 residues (ΔTMD0) (mouse) (UniProt Q9JJ59)
T1 sequence: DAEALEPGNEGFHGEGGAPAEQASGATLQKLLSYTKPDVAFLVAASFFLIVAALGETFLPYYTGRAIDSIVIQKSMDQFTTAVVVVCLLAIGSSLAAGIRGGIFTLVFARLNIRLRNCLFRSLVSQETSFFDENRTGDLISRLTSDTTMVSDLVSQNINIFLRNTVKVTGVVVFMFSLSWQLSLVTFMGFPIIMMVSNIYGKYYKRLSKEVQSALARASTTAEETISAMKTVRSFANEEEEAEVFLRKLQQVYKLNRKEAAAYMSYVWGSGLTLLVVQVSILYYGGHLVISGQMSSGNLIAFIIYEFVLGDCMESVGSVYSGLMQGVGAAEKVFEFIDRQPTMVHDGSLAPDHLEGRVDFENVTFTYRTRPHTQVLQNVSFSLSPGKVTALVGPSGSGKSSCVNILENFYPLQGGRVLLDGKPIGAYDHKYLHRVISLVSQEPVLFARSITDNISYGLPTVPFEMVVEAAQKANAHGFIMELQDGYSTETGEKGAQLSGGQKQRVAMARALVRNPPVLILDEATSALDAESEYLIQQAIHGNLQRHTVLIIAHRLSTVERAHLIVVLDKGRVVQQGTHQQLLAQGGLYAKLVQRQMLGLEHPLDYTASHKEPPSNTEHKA
Assay: condition: only with Mg2+/ADP·BeF3 (outward-facing state); 1 mM peptide; cryo-EM structure; ΔTMD0 in nanodiscs of E. coli polar lipids with 1 mM 9-mer peptide, 2 mM ATP, 2 mM MgCl2, 8 mM NaF, 2 mM BeSO4, 37 °C for 10 min; outward-facing ADP·BeF3-bound, 3.2 Å; both purified

B1: 9-mer peptide RRYQKSTEL (peptide)
peptide: RRYQKSTEL
notes: short synthetic peptide known to be transported by human TAPL; source: synthetic peptide (ANYGEN Co., Ltd.)
binding: no binding
